Measured values taken from the supplement of paper PMC10849652.
The list shows a part of the results.

By UniProt entry, the sequences of proteins in these tests, tags left out. Where a name states a change or a piece, a line headed by the entry shows the natural chain unless it says otherwise.
UniProt P43361: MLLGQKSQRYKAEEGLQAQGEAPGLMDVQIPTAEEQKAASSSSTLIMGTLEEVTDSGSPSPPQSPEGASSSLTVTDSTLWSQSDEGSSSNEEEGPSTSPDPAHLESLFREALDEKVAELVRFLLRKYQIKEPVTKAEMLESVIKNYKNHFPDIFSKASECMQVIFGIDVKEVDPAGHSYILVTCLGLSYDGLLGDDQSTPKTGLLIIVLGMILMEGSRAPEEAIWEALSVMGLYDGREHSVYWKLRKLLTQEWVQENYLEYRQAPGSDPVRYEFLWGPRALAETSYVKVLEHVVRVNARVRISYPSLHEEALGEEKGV
UniProt Q8WZA0: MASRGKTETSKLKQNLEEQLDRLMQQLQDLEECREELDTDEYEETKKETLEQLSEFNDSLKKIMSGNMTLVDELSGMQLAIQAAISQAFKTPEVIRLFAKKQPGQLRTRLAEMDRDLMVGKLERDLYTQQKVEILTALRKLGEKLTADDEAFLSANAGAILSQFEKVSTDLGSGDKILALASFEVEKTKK
UniProt Q16659, whole entry, looked up: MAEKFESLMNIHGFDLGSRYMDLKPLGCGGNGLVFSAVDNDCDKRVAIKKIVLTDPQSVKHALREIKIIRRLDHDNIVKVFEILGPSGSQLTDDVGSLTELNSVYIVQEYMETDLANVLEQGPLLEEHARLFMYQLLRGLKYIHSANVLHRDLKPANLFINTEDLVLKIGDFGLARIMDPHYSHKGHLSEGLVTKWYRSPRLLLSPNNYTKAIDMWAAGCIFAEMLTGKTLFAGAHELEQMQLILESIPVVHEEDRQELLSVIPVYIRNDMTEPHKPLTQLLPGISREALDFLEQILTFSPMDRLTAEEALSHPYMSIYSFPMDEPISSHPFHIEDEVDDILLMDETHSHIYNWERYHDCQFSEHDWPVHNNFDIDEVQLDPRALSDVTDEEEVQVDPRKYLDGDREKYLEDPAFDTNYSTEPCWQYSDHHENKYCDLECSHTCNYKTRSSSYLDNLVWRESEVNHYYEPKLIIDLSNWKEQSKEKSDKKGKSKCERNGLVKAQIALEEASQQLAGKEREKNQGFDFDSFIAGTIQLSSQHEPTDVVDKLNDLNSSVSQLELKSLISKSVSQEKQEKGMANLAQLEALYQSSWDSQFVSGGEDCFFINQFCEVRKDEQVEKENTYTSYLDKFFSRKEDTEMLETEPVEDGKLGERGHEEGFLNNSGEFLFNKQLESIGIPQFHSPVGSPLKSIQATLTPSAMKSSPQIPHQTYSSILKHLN
UniProt Q8IWC1: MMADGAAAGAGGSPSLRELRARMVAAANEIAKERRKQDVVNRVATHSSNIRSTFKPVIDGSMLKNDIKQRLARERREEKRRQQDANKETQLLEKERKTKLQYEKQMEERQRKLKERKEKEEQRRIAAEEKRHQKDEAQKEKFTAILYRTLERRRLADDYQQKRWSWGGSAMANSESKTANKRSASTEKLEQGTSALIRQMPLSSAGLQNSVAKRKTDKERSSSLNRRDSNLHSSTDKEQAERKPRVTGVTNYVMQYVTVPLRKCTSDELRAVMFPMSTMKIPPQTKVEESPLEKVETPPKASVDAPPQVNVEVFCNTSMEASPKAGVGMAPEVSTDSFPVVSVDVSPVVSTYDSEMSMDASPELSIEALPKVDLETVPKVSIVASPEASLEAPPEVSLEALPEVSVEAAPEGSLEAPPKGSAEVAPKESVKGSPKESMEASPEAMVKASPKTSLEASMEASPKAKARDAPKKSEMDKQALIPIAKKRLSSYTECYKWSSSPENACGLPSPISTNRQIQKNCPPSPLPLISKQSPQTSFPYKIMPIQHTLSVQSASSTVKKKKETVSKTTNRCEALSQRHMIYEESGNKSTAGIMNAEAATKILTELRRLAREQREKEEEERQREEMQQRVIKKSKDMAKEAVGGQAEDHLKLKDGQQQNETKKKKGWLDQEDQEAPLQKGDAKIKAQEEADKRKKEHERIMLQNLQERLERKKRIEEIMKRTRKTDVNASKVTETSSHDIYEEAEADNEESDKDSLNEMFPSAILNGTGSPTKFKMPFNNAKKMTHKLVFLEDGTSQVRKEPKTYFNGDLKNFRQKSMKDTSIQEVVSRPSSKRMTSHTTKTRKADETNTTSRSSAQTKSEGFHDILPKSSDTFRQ
UniProt Q13164: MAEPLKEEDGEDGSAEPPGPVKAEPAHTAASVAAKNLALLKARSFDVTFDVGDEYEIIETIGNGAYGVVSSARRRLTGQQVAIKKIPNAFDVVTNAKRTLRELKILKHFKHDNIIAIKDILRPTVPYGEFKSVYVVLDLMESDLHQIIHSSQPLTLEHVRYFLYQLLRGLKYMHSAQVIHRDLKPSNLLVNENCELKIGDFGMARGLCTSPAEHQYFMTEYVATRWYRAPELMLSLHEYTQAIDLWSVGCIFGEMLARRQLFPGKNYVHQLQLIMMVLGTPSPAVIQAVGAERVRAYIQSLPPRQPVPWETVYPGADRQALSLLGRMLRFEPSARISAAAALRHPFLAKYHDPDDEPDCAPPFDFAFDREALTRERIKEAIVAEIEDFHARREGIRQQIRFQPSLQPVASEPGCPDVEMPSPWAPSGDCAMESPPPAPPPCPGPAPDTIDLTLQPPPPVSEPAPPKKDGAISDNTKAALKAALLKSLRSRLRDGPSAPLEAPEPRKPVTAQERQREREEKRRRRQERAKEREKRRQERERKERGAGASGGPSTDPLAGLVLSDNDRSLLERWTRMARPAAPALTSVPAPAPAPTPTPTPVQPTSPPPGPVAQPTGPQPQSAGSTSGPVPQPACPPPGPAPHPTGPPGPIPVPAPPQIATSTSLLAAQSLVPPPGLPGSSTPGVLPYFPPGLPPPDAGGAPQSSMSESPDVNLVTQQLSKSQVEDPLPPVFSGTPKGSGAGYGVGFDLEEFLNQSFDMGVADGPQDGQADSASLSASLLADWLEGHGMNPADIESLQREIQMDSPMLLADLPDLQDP
UniProt Q9C099: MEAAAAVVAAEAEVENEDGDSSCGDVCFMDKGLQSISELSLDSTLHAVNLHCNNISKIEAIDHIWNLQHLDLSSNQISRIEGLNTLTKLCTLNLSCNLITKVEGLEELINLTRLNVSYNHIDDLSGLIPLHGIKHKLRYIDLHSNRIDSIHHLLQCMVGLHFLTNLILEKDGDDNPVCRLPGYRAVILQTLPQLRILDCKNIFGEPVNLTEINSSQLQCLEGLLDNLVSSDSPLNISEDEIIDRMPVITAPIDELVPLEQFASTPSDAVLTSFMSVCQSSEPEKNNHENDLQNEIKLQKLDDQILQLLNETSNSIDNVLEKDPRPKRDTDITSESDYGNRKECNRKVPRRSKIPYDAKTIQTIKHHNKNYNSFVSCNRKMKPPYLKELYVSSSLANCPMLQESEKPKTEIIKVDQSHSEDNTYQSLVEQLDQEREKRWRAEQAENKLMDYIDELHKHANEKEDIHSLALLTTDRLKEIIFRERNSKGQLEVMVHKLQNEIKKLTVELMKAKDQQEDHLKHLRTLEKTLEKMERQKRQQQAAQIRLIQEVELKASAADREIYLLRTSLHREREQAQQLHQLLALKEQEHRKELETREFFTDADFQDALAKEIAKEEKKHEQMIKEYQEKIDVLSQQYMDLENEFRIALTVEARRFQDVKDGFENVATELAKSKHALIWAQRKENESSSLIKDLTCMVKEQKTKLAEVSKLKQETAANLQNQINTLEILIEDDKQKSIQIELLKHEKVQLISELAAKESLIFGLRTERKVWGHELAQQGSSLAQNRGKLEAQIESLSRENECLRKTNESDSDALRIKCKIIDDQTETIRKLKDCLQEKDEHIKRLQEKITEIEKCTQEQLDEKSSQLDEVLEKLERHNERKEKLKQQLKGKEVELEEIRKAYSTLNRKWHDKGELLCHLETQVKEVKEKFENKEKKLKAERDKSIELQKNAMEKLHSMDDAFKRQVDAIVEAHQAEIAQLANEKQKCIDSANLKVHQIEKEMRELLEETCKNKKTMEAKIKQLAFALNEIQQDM
UniProt Q8IVH8: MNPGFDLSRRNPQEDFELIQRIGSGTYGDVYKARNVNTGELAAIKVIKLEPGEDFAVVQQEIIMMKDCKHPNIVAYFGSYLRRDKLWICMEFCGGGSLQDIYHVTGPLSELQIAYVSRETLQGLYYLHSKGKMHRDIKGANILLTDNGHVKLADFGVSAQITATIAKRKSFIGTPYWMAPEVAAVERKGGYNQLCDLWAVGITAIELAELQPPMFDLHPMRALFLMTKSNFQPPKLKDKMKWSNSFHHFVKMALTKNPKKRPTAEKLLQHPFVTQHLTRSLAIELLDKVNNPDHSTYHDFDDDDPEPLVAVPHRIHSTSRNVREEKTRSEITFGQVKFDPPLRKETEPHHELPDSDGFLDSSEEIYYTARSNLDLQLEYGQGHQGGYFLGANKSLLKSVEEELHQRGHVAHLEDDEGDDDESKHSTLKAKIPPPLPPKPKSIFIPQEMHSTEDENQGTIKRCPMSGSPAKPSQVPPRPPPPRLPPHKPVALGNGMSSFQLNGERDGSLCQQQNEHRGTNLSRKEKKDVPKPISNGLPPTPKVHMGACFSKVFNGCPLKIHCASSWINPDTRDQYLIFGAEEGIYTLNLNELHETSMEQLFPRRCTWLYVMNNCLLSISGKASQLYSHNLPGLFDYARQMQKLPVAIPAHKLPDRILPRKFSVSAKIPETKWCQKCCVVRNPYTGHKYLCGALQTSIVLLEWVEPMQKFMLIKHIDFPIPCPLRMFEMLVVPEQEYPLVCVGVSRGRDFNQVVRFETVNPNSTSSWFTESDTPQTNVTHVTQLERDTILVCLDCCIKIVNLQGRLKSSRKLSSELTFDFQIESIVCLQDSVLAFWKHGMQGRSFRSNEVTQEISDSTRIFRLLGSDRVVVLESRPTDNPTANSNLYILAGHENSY
UniProt O43325: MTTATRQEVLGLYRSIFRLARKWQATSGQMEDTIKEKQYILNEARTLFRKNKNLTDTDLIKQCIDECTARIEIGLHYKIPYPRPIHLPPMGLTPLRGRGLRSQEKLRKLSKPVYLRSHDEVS
UniProt Q5TCQ9: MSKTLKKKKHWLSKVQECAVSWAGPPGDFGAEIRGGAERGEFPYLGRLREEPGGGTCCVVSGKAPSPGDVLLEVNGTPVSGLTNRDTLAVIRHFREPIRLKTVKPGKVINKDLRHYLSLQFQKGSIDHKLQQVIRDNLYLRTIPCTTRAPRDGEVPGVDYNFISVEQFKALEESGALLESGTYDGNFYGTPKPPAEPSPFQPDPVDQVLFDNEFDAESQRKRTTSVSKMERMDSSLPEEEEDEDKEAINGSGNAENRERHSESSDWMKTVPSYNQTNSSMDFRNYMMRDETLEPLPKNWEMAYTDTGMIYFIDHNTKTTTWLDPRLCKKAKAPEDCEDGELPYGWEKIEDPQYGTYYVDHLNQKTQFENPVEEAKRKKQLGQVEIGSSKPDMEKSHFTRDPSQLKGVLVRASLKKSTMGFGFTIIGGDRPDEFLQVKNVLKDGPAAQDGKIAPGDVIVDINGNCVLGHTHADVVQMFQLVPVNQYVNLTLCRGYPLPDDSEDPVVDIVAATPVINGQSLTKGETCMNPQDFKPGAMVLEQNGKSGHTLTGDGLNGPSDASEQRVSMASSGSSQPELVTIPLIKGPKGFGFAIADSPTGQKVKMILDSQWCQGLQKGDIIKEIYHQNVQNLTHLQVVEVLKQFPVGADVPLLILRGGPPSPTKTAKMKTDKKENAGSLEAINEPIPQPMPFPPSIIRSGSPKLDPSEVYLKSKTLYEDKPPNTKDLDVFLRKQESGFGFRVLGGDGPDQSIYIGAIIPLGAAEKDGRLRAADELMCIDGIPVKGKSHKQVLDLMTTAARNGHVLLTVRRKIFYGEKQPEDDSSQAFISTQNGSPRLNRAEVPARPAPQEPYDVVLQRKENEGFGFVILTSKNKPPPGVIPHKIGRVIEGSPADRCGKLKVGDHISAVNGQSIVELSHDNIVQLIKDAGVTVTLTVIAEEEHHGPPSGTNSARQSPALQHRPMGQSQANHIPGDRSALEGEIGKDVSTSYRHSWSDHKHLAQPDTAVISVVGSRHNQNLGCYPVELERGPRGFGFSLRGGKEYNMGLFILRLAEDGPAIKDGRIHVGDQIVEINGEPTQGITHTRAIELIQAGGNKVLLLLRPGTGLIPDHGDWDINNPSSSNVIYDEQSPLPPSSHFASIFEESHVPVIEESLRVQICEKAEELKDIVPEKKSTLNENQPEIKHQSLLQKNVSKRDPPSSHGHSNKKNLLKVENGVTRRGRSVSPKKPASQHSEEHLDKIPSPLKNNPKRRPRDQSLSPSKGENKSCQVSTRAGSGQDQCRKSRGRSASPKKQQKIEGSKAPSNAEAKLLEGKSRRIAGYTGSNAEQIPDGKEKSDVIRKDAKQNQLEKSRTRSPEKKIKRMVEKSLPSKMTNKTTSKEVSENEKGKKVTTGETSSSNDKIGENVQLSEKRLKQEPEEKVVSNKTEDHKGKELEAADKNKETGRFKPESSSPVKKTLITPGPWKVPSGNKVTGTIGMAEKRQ
UniProt Q969L4: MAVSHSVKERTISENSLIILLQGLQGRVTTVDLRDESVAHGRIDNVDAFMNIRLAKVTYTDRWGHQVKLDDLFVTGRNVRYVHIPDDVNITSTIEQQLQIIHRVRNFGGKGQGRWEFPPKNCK

Tests used:
Test in all cases: log2 fold change, soluble protein after heating vs DMSO (PISA); higher = thermal stabilisation; K562 cells, 10 uM, 30 min; active = over 0.2 and 3.5 SD of the protein, either way, in both replicates (recomputed)
[1] = compound: C#Cc1cccc(Nc2ncnc3cc(OCCOC)c(OCCOC)cc23)c1 [erlotinib]
In short: (§1)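 For each measurement, 10 μM compound was applied for 30 min to K562 cells at 2×10^6 cells/mL. Aliquots were heated for 3 min across 48°C-58°C, pooled, and extracted in PBS with 0.5% NP-40 at 4°C; the supernatant after 21,000xg for 90 min was soluble protein. This was quantified by TMTpro 16plex LC-MS/MS with channel sums equalised, and thermal stability was reported relative to control samples from duplicates, on a log2 fold-change scale.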

[2] = compound: C/C(=N\NC(=O)C1=CC(=CC=C1)S(=O)(=O)N2CCOCC2)/C3=C(C=CC(=C3)Cl)O
In short: as §1

[3] = compound: C1=CC(=C(C=C1Cl)C2=NC3=NC=CN=C3C(=N2)NC4=CC=NC=C4)F
In short: as §1

[4] = compound: C1=CC(=CC=C1C2=NC3=C(N2)C=C(C=C3)C(=O)N)OC4=CC=C(C=C4)Cl
In short: as §1

[5] = compound: C1=CC2=C(C=CC(=C2)/C=C\3/C(=O)NC(=NCC4=CC=CS4)S3)N=C1
In short: as §1

[6] = compound: C1=CC2=NC=CN=C2C=C1/C=C/3\C(=O)NC(=O)S3
In short: as §1

[7] = compound: C1=CC=C(C=C1)C2=NC(=C(N2)C3=CC=NC=C3)C4=CC(=C(C=C4)Cl)O
In short: as §1

[8] = compound: C1=CC=C2C(=C1)C3=NNC4=CC=CC(=C43)C2=O
In short: as §1

[9] = compound: C1CCN(C1)C(=O)NC2=CC=CC(=C2)NC3=NC=C(C(=N3)NCCC4=CN=CN4)Br
In short: as §1

[10] = compound: C1CN(CCC1(CC2=CC=C(C=C2)Cl)N)C3=NC=NC4=C3C=CN4
In short: as §1

Measured: log2 fold change

LSM14B (UniProt Q9BX40)
inactive: [1] -0.101 | [2] -0.038 | [3] -0.001 | [4] 0.02 | [5] 0.062 | [6] -0.058 | [7] -0.057 | [8] 0.024 | [9] 0.021 | [10] -0.15

MAGEA8 (UniProt P43361)
inactive: [1] 0.033 | [2] 0.038 | [4] -0.075 | [5] -0.04 | [6] 0.132 | [7] -0.028 | [8] -0.098 | [9] 0.052 | [10] 0.099

LSM12 isoform 2 (UniProt Q3MHD2)
inactive: [1] 0.023 | [2] 0.006 | [3] -0.019 | [4] -0.076 | [5] 0.002 | [6] -0.007 | [7] 0.026 | [8] 0.005 | [9] -0.013 | [10] -0.034

LRRC8C (UniProt Q8TDW0)
inactive: [1] 0.009 | [2] -0.058 | [3] -0.049 | [4] -0.073 | [5] -0.131 | [7] -0.09 | [8] 0.031

LRRFIP1 isoform 4 (UniProt Q32MZ4)
inactive: [1] -0.122 | [3] -0.121 | [4] -0.006 | [5] -0.045 | [8] 0.072
active: [2] -1.2

MAD1L1 (UniProt Q9Y6D9)
inactive: [1] 0 | [2] -0.475 | [3] 0.375 | [4] 0.017 | [5] 0.073 | [6] 0.06 | [7] 0.224 | [8] -0.062 | [9] 0.12 | [10] 0.564

MAGI1 (UniProt Q96QZ7)
inactive: [1] -0.022 | [2] 0 | [3] -0.083 | [4] 0.049 | [5] -0.008 | [6] 0.018 | [7] -0.015 | [8] -0.016 | [9] 0.012 | [10] -0.047

MAD2L2 (UniProt Q9UI95)
inactive: [1] 0.09 | [2] 0.125 | [3] -0.041 | [4] 0.027 | [5] 0.085 | [8] -0.078

LTBP4 (UniProt Q8N2S1)
inactive: [1] 0.03 | [2] 0.048 | [3] 0.023 | [4] -0.079 | [5] 0.015 | [8] -0.049 | [9] -0.028 | [10] 0.086

LTBR (UniProt P36941)
inactive: [1] 0.012 | [2] -0.145 | [3] 0.254 | [4] -0.035 | [5] -0.074 | [6] 0.01 | [7] -0.183 | [8] -0.033 | [9] 0.043 | [10] 0.187

MAP4K5 (UniProt Q9Y4K4)
inactive: [1] -0.001 | [2] 0.057 | [3] 0.05 | [4] 0.051 | [5] 0.143 | [6] -0.025 | [7] -0.039 | [9] -0.083 | [10] 0.152

LUM (UniProt P51884)
inactive: [1] -0.147 | [2] -0.043 | [3] 0.095 | [4] 0.039 | [5] 0.063 | [7] -0.057 | [8] -0.068 | [9] 0.185 | [10] 0.307

LZIC isoform 2 (UniProt Q8WZA0)
inactive: [1] -0.033 | [2] 0.005 | [3] 0.045 | [4] 0.019 | [5] 0.01 | [6] 0.021 | [7] -0.069 | [8] -0.017 | [9] 0.004 | [10] 0.054

MAPK6 (UniProt Q16659)
inactive: [1] 0.015 | [2] 0.018 | [3] -0.031 | [4] 0.045 | [5] 0.044 | [6] -0.145 | [8] 0.146 | [9] -0.053 | [10] -0.058

MAP7D3 (UniProt Q8IWC1)
inactive: [1] 0.008 | [3] -0.513 | [4] 0.067 | [6] -0.063 | [7] 0.084

MANSC1 (UniProt Q9H8J5)
inactive: [2] -0.005 | [5] -0.057 | [8] -0.059 | [9] 0.061 | [10] 0.038

MAPK7 (UniProt Q13164)
inactive: [2] 0.095 | [3] 0.02 | [5] 0 | [8] 0.14

MAML1 (UniProt Q92585)
inactive: [1] 0.369 | [3] 0.004 | [4] 0.082 | [7] -0.004

MAML2 (UniProt Q8IZL2)
inactive: [1] -0.157 | [4] -0.201 | [7] -0.206

LSR isoform 3 (UniProt Q86X29)
inactive: [9] -0.169 | [10] 0.25

MAP3K3 isoform 2 (UniProt Q99759)
inactive: [1] -0.005 | [3] 0 | [4] 0.093 | [7] 0.056 | [9] 0.058 | [10] -0.125

MAPK11 (UniProt Q15759)
inactive: [1] 0.169 | [4] -0.28 | [7] 0.744 | [9] -0.56 | [10] 0.309

LRRCC1 (UniProt Q9C099)
inactive: [5] 0.088 | [7] 0.257 | [8] 0.123 | [9] 0.121 | [10] 0.101
active: [2] -0.671

LYST (UniProt Q99698)
inactive: [3] -0.26 | [6] 0.05

MAGEA1 (UniProt P43355)
inactive: [1] 0.055 | [3] -0.097 | [4] 0.006 | [6] 0.043 | [7] -0.115

MAP4K3 (UniProt Q8IVH8)
inactive: [1] -0.032 | [4] 0.04 | [6] 1.22

MAP4K2 (UniProt Q12851)
inactive: [6] -0.122 | [9] -0.413 | [10] -0.172

LYRM1 (UniProt O43325)
inactive: [1] 0.026 | [3] 0.01 | [4] 0.053 | [6] -0.03 | [7] -0.063 | [9] 0.014 | [10] 0.075

LRRC8E (UniProt Q6NSJ5)
inactive: [1] -0.064 | [3] -0.052 | [4] -0.049 | [6] 0.129 | [7] -0.04 | [9] 0.02 | [10] -0.024

MAP4K4 isoform 6 (UniProt O95819)
inactive: [9] -0.168 | [10] -0.025

MARCHF3 (UniProt Q86UD3)
inactive: [3] -0.188 | [6] -0.073

Quoted at random: two records from the list.
LSR isoform 3 (UniProt Q86X29)
inactive: [9] -0.169 | [10] 0.25

LRRC8C (UniProt Q8TDW0)
inactive: [1] 0.009 | [2] -0.058 | [3] -0.049 | [4] -0.073 | [5] -0.131 | [7] -0.09 | [8] 0.031

Additional records

MAGI3 isoform 1 (UniProt Q5TCQ9)
inactive: [2] -0.352 | [3] -0.19 | [5] -0.025 | [6] 0.015 | [8] 0.08 | [9] -0.036 | [10] 0.1

LSM10 (UniProt Q969L4)
inactive: [1] -0.039 | [4] 0.323 | [6] 0.024 | [9] -0.095 | [10] -0.143

MAP2K5 (UniProt Q13163)
inactive: [2] 0.021 | [5] 0.277 | [7] 0.145 | [8] -0.036

MAPKAP1 (UniProt Q9BPZ7)
inactive: [3] -0.018 | [7] -0.108 | [9] -0.001 | [10] 0.01

MAP3K10 (UniProt Q02779)
inactive: [2] 0.12 | [5] -0.082 | [6] 0.046 | [8] 0.024 | [9] 0.041 | [10] -0.207
